Test results from patent publication US20120210450A1.
No constants are given. Whether binding was seen depends on the method and setting. A result given as binding can be weak or reduced; the word gives no strength. Sequences can lack the tags named with a protein.

Protein sequences, listed by entry. Tags and fused reporters are not part of them. Lines headed by an entry give the natural chain unless they say otherwise; changes in a name come on top.
UniProt P01579: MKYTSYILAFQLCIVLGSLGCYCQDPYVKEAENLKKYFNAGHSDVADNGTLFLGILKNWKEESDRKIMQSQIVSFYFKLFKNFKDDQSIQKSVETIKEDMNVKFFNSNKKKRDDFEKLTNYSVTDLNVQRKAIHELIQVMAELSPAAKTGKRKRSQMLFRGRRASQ

Target: T1, UNQ1900-ECD-Fc (human) (UniProt Q6UXG8)
T1 sequence: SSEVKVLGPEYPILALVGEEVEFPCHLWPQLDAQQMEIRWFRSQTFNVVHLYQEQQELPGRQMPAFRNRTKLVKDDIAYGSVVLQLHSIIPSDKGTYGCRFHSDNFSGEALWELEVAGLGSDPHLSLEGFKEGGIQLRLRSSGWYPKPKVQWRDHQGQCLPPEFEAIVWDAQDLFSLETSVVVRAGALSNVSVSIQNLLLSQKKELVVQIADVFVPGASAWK
Experiment: BiaCore (SPR), UNQ1900-ECD-Fc coated on chip, screen of 275 proteins

INF-gamma (from UniProt P01579) (ligand)
binding: binds
